PubChem BioAssay AID1259254 – NCATS | 2017
This is an unselected part of about 59,000 reagents tested. Of all reagents, about 1,550 (2.6%) are marked active. 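G2 share is only a proxy for re-replication; each gene was hit by three separate siRNAs, and active genes were retested.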 A number with no mark means an inactive call. The numbers tell different reagents against one gene apart. Not all columns of the deposit are shown. Not given: the amount of reagent.

- Test: 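Finding genes that stop cells copying their DNA twice in one cycle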 (primary screen)
- System: human HCT116 colorectal cancer cells
- Knock-down reagent: single siRNA against human genes
- Time to read-out: 3 days
- Detection: 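Imaged Hoechst DNA stain sorts each cell into a cycle phase by DNA amount; per plate, G2 fraction set to 0% for non-targeting and 100% for GMNN siRNA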
- Direction: G2 robust z-score and G2 cells, % of GMNN control: higher = more G2 cells, more excess DNA replication
- Active means: 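Active siRNAs have a G2 robust z of 5 or more median absolute deviations over the median, which in these data means about 38% or higher of GMNN control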

BARD1 #1 gave G2 robust z-score 5.05 (active); G2 cells, % of GMNN control 38.5. Silencing of BARD1 #2 gave: G2 robust z-score 1.94; G2 cells, % of GMNN control 16.6. Silencing of BARD1 #3 gave: G2 robust z-score 2.37; G2 cells, % of GMNN control 19.7. With knock-down of EPN2 #1, the screen gave G2 robust z-score 3.06; G2 cells, % of GMNN control 24.5. EPN2 #2 showed G2 robust z-score 1.69; G2 cells, % of GMNN control 14.8. EPN2 #3 showed G2 robust z-score 0.0936; G2 cells, % of GMNN control 3.63.

2 entries already listed, ordered by “G2 robust z-score”, highest first.
EPN2 #1: G2 robust z-score = 3.06; G2 cells, % of GMNN control = 24.5
EPN2 #2: G2 robust z-score = 1.69; G2 cells, % of GMNN control = 14.8

More results:
Against KRT82 #1, the values are G2 robust z-score 0.18; G2 cells, % of GMNN control 4.23. Against KRT82 #2, the entry reads G2 robust z-score -0.814; G2 cells, % of GMNN control -2.76. Silencing of KRT82 #3 resulted in: G2 robust z-score -0.447; G2 cells, % of GMNN control -0.177. Knock-down of ARHGEF3 #1 came out at: G2 robust z-score 1.77; G2 cells, % of GMNN control 15.4. Against ARHGEF3 #2 the deposit lists G2 robust z-score 0.613; G2 cells, % of GMNN control 7.28. ARHGEF3 #3 showed G2 robust z-score -0.0977; G2 cells, % of GMNN control 2.28.
